{"source": "PubChem BioAssay AID652041", "about": "(Broad Institute, 2013)", "assay": "antimalarial activity against intraerythrocytic HB3 parasites – HB3 strain, red blood cells, SYBR Green, cherry-picked, dose response (AID 652041);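 further: parasites exposed to compound for 72 hours before the DNA read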", "details": "P. falciparum HB3 in RBCs, SYBR Green DNA fluorescence; at 50 µM (top of the series)", "note": "The source calls these results inconclusive, neither active nor inactive.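 How the source made its calls: active means fitted curve reaching a 35% signal drop at a concentration under 10 µM, within twice the top tested dose; inconclusive means no clear call, values can overlap the other calls; inactive means the rest, including activity opposite to the expected direction.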", "data": [{"smiles": "Clc1ccc(C2=NCCN2)cc1", "values": [{"measurement": "activity change, negative = inhibition", "value": "inconclusive: -4.69%"}]}]}
